The target in test [1] is FLAG-PIP5Kγ90 (UniProt O60331). The test can be described thus: co-IP; FLAG-IP (anti-FLAG M2 affinity gel, 4 h, 4 °C) from lysates of transfected HEK293 or WT HEK293A cells; lysis buffer 50 mM Tris pH 7.4, 150 mM NaCl, 1% Triton X-100; Western blot; some panels with siCtrl or siLATS1, in Merlin KO or LATS1/2 KO HEK293A cells, or with co-transfected V5-Hsc70, HA-PIP5Kγ90 or GFP-PIP5Kγ90 WT. Background: Immunoblotting shows a protein as a band on a membrane.

Chains of the proteins cited; added tags and fusions are not shown. Lines headed by an entry give the natural chain unless they say otherwise; changes in a name come on top. Residues count along the entry.
UniProt O60331: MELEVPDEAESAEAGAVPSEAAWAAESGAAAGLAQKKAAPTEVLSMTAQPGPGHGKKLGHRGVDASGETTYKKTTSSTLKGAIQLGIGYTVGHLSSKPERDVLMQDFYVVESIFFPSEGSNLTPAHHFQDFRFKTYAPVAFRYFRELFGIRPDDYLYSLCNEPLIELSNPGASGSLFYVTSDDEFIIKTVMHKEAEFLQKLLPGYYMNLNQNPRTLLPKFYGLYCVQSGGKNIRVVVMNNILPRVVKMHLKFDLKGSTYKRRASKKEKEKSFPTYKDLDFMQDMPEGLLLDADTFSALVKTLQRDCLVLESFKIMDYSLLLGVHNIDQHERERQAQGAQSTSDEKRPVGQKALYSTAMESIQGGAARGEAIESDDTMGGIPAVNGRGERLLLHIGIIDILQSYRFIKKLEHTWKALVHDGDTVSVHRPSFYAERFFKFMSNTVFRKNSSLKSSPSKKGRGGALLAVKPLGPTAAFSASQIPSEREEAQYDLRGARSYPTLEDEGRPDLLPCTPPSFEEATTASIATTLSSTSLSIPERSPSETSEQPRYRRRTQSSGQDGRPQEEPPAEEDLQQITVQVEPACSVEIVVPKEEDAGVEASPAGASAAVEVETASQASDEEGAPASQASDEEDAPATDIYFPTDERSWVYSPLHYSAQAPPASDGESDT
UniProt P35240: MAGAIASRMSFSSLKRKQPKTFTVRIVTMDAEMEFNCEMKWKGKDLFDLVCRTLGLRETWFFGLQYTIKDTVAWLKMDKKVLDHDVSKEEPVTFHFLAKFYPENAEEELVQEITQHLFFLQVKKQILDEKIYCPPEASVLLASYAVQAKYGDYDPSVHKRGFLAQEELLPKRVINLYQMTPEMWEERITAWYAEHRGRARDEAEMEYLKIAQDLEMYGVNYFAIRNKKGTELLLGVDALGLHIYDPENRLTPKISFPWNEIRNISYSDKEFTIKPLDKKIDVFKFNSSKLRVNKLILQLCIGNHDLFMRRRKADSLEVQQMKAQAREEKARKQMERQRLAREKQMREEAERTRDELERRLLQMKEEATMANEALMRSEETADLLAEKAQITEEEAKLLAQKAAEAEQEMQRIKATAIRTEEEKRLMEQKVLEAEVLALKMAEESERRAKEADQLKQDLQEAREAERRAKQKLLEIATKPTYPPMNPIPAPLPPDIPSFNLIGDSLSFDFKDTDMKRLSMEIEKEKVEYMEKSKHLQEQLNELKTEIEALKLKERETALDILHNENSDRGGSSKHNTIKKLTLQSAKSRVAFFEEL
GFP-Merlin FERM domain: residues 18-312 of P35240
FLAG-Merlin FERM domain: residues 22-311 of P35240
GFP-F3 subdomain of the Merlin FERM domain: residues 221-312 of P35240
UniProt P11142: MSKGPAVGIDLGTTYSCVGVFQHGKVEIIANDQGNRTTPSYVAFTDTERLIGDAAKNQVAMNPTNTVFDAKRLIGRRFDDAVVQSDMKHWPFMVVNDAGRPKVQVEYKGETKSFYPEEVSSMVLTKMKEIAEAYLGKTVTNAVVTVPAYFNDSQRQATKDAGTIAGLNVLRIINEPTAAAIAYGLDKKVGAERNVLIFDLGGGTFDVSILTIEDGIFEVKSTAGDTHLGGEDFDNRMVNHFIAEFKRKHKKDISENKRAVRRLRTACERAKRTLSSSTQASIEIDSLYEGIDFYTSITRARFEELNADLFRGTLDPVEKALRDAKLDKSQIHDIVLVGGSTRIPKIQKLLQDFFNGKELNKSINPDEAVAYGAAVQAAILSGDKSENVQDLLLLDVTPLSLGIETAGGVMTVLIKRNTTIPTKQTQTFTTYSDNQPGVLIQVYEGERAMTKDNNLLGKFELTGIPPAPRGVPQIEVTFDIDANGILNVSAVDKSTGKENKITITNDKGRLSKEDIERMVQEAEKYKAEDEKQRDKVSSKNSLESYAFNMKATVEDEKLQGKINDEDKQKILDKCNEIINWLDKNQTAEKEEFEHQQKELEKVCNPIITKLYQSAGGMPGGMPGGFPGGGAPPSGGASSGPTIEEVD

Test [2] concerns the target FLAG-Merlin WT (UniProt P35240). Put plainly: co-IP; FLAG-IP (anti-FLAG M2 affinity gel) from lysates of HEK293 cells co-transfected with FLAG-Merlin and GFP-PIP5Kγ90 KD; Western blot.
For test [3] the target is unchanged. The test can be described thus: co-IP; FLAG-IP (anti-FLAG M2 affinity gel, 4 h, 4 °C) from lysates of transfected HEK293 or WT HEK293A cells; lysis buffer 50 mM Tris pH 7.4, 150 mM NaCl, 1% Triton X-100; Western blot; some panels with siCtrl or siLATS1, in Merlin KO or LATS1/2 KO HEK293A cells, or with co-transfected V5-Hsc70, HA-PIP5Kγ90 or GFP-PIP5Kγ90 WT.
The target in test [4] is HA-Merlin (UniProt P35240). The test can be described thus: co-IP; HA-IP (anti-HA antibody, protein A/G PLUS-Agarose, 4 °C) from lysates of transfected HEK293 cells; lysis buffer 50 mM Tris pH 7.4, 150 mM NaCl, 1% Triton X-100; Western blot.
Test [5] deals with T1, HA-LATS1 (UniProt O95835).
T1 sequence: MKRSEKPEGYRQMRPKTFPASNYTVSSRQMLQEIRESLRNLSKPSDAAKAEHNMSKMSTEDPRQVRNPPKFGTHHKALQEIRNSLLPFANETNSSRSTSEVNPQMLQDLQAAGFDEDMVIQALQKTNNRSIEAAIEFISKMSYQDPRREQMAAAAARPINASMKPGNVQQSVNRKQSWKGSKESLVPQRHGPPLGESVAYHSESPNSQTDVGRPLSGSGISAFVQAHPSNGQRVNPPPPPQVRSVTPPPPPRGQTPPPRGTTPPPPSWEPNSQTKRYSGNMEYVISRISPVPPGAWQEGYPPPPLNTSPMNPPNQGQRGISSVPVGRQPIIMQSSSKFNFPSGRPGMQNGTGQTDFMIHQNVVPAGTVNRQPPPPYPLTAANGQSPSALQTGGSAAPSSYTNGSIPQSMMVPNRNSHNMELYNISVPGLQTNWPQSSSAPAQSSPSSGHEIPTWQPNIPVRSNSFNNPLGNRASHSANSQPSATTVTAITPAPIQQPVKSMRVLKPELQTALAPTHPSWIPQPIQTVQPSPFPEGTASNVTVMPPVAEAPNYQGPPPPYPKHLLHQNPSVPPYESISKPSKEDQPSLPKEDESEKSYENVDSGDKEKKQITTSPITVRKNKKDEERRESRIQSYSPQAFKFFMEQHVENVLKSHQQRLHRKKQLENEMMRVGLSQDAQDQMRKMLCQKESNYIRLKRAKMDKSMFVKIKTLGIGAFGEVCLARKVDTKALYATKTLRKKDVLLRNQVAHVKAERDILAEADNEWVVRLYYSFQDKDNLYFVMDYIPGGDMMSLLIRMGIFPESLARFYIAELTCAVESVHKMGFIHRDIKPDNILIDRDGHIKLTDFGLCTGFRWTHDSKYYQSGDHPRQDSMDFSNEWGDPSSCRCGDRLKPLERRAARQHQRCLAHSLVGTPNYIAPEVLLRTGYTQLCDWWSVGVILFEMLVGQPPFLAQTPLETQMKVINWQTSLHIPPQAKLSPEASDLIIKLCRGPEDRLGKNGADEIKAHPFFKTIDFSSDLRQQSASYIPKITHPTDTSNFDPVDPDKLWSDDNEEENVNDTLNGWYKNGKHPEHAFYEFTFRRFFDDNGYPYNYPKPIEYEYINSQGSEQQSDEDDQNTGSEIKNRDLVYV
Described as above.

The target of test [6] is endogenous PIP5Kγ (human (endogenous in HEK293)) (UniProt O60331). Put plainly: co-IP; IP of endogenous PIP5Kγ (anti-PIP5Kγ antibody or control IgG, 6 h, 4 °C, protein A/G PLUS-Agarose) from HEK293 cell lysates; Western blot of Hsc70.
Test [7] concerns the target GFP-Merlin FERM domain (UniProt P35240). Put plainly: co-IP; GFP-IP (anti-GFP antibody, protein A/G PLUS-Agarose, 4 °C) from lysates of transfected HEK293 cells; lysis buffer 50 mM Tris pH 7.4, 150 mM NaCl, 1% Triton X-100; Western blot; one panel without and with co-transfected Myc-PIP5Kγ90.
For test [8], the target named is GFP-F3 subdomain of the Merlin FERM domain (UniProt P35240). The description is as above.
Test [9] concerns the target FLAG-Merlin FERM domain (UniProt P35240). Put plainly: co-IP; FLAG-IP (anti-FLAG M2 affinity gel, 4 h, 4 °C) from lysates of transfected HEK293 or WT HEK293A cells; lysis buffer 50 mM Tris pH 7.4, 150 mM NaCl, 1% Triton X-100; Western blot; some panels with siCtrl or siLATS1, in Merlin KO or LATS1/2 KO HEK293A cells, or with co-transfected V5-Hsc70, HA-PIP5Kγ90 or GFP-PIP5Kγ90 WT.

These are yes or no findings as the source states them, for the method shown. Binding seen in cells or lysates may run through a third protein. Some results given as binding are weak or reduced against the parent protein; the word gives no strength. For part of these data: Sequences can lack the tags named with a protein.

As to V5-Hsc70 (from UniProt P11142 1-646), the binding entry in test [1] is “binds”.

Consider “GFP-tagged kinase-dead (KD) PIP5Kγ90 (K407N, K408N) (from UniProt O60331 1-668) (enzyme)”, for which, in test [2], the binding result is recorded as “binds”.

HA-Merlin (from UniProt P35240 1-595): the binding result in test [1] is listed as “binds”.

As for GFP-Merlin (from UniProt P35240 1-595), the binding result in test [1] is recorded as “binds”.

For “GFP-PIP5Kγ90 WT (from UniProt O60331 1-668) (enzyme)”, in test [3], the binding result is given as “binds”.

Regarding “endogenous Merlin (from UniProt P35240 1-595)”, in test [1], the binding result is reported as “binds”.

For the substance “endogenous PIP5Kγ (from UniProt O60331 1-668) (enzyme)”, the binding result in test [4] and in test [5] was “binds” each time.

As to “endogenous Hsc70 (from UniProt P11142 1-646)”, the binding entry in test [1] and in test [6] was “binds” in each case.

Regarding “HA-PIP5Kγ90 (from UniProt O60331 1-668) (enzyme)”, the binding entry in test [7], in test [8], in test [3] and in [9] was “binds” throughout.

As to “Myc-PIP5Kγ90 (from UniProt O60331 1-668) (enzyme)”, in test [4], the binding result was “binds”.

These data come from article PMC10572892.
